# The list shows a part of the results.
# Molecular target: T1, OsSMF1 (Oryza sativa, UniProt Q6ZLB0 1-436)
# T1 sequence: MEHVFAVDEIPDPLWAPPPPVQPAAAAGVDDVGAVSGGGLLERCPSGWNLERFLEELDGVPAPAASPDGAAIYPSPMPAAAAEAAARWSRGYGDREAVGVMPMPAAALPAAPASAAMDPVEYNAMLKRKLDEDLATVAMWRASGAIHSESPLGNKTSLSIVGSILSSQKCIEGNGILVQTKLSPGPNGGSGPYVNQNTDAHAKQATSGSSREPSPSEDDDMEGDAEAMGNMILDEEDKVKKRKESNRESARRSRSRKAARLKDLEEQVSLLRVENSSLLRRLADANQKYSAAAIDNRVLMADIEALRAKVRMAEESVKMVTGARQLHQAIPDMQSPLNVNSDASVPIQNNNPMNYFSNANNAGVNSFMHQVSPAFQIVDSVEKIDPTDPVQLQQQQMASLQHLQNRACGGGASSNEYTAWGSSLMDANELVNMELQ
# Experiment: protein-binding microarray (RPBM); PBS, 2% BSA, 51.3 ng/ul salmon testes DNA, 50 uM zinc acetate, 200 nM TF, 25 C, 1 h; high values mean tight binding
# Conditions: protein: recombinant; tags: N-terminal polyhistidine and DsRed monomer fusion (pET32a); chain copies: 2; label: CyDye5-dUTP incorporated in the synthesized complementary strand; 3' TTTTT single-stranded linker to array surface; dsDNA, one strand shown
# Summary of the method: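 Transcription factors were each fused at the N-terminus to a polyhistidine tag plus DsRed and expressed in E. coli BL21-CodonPlus before Ni–NTA purification. Binding to a double-stranded custom Agilent array was carried out with 200 nM protein at 25 °C for 1 h in PBS, 2% BSA, salmon testes DNA and 50 µM zinc acetate. The binding signal is per-feature fluorescence intensity, in arbitrary units, on an Axon 4000B scanner.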
row,Sequence,binding signal
1,GGTCGTCAGATCACGTTACACGTACATTCCAGCTTCAGATCGGAGTCACCTAGTGCAG,5280 fluorescence intensity (a.u.)
2,CTTAATTAATTATACACACAAACATTCCCTCCAATGCATGCGGAGTCACCTAGTGCAG,3760 fluorescence intensity (a.u.)
3,AGCGCCACGTGGAGAAATCCCCACGACTACCTCGGGCGGACGGAGTCACCTAGTGCAG,11700 fluorescence intensity (a.u.)
4,TGGATTACTCATAATGATTATGTCATATAGGTGATGTTGCCGGAGTCACCTAGTGCAG,3440 fluorescence intensity (a.u.)
5,TAATTAATTGATAGTGCCAAATGTTACTCCTATGGCACTGCGGAGTCACCTAGTGCAG,36700 fluorescence intensity (a.u.)
6,CTTCGCCTCCCTCTCCGGCTCCAGCACATGGCTGCTTCTCCGGAGTCACCTAGTGCAG,4120 fluorescence intensity (a.u.)
7,ATCCTCGGCGCCGGGCAAGAGGAAGCGGTCGGCGAGGGCGCGGAGTCACCTAGTGCAG,38400 fluorescence intensity (a.u.)
8,GAATATATATGTTGTATGTGTGTGTATATCCTAGTTCTCTCGGAGTCACCTAGTGCAG,3830 fluorescence intensity (a.u.)
9,CCTCACCGGTAAACGAGTCACCGGCTATCCTGGCCGGGCACGGAGTCACCTAGTGCAG,4320 fluorescence intensity (a.u.)
10,AGGAAGCTAGAAACACAGTCCCACGGAACGCTTATTTTAACGGAGTCACCTAGTGCAG,14100 fluorescence intensity (a.u.)
11,TTTACCACTTAATTATTTTAATCTTATTAATTAATTCTTTCGGAGTCACCTAGTGCAG,28200 fluorescence intensity (a.u.)
12,AAGAAGAAGTTGCGCTGACATGTAGGATGACTCAACAGGTCGGAGTCACCTAGTGCAG,7010 fluorescence intensity (a.u.)
13,TCTTCCCCTGTTTCTGACCAATCCCCTCTGCTCTCTCCTCCGGAGTCACCTAGTGCAG,3570 fluorescence intensity (a.u.)
14,GTTTTCCATCGACCGATCGGTGAATCACCCGGTGCTAGTACGGAGTCACCTAGTGCAG,3400 fluorescence intensity (a.u.)
15,CACGCGATCGGTTGCCACATCGATCGTCCGTTGCTTTGGACGGAGTCACCTAGTGCAG,4000 fluorescence intensity (a.u.)
16,GGAACTTGGTCAAAACTCCGGTTTTCGAAAGCTGCTAATTCGGAGTCACCTAGTGCAG,24100 fluorescence intensity (a.u.)
17,TCTCTCTCATTGGGCCACGCACGTCACTGATGCTTGAGCCCGGAGTCACCTAGTGCAG,9140 fluorescence intensity (a.u.)
18,CGACTCCACCAACCCCAGCCCACCCCACGTCACGCCGCACCGGAGTCACCTAGTGCAG,10100 fluorescence intensity (a.u.)
19,TCACGCGCCGCCGCCGCCTGTCGTGTAACCCACCACCTCCCGGAGTCACCTAGTGCAG,4370 fluorescence intensity (a.u.)
20,CATTCTCCTTCTCTCTCGTACGGCTAGAGGTTGAAGACGACGGAGTCACCTAGTGCAG,3760 fluorescence intensity (a.u.)
21,TTACCTGCTGACCTGTGTTTGTGTGTGATCTACTATCTGCCGGAGTCACCTAGTGCAG,7070 fluorescence intensity (a.u.)

# No new results follow: entries from further up.
row,Sequence,binding signal
7,ATCCTCGGCGCCGGGCAAGAGGAAGCGGTCGGCGAGGGCGCGGAGTCACCTAGTGCAG,38400 fluorescence intensity (a.u.)
8,GAATATATATGTTGTATGTGTGTGTATATCCTAGTTCTCTCGGAGTCACCTAGTGCAG,3830 fluorescence intensity (a.u.)
9,CCTCACCGGTAAACGAGTCACCGGCTATCCTGGCCGGGCACGGAGTCACCTAGTGCAG,4320 fluorescence intensity (a.u.)
10,AGGAAGCTAGAAACACAGTCCCACGGAACGCTTATTTTAACGGAGTCACCTAGTGCAG,14100 fluorescence intensity (a.u.)
11,TTTACCACTTAATTATTTTAATCTTATTAATTAATTCTTTCGGAGTCACCTAGTGCAG,28200 fluorescence intensity (a.u.)
12,AAGAAGAAGTTGCGCTGACATGTAGGATGACTCAACAGGTCGGAGTCACCTAGTGCAG,7010 fluorescence intensity (a.u.)
13,TCTTCCCCTGTTTCTGACCAATCCCCTCTGCTCTCTCCTCCGGAGTCACCTAGTGCAG,3570 fluorescence intensity (a.u.)
14,GTTTTCCATCGACCGATCGGTGAATCACCCGGTGCTAGTACGGAGTCACCTAGTGCAG,3400 fluorescence intensity (a.u.)
15,CACGCGATCGGTTGCCACATCGATCGTCCGTTGCTTTGGACGGAGTCACCTAGTGCAG,4000 fluorescence intensity (a.u.)
16,GGAACTTGGTCAAAACTCCGGTTTTCGAAAGCTGCTAATTCGGAGTCACCTAGTGCAG,24100 fluorescence intensity (a.u.)

# Remaining list, next part:

row,Sequence,binding signal
1,GCCGCCGCCGCCGCCGCCCTCGCCATCGCCTCCGCGAGCGCGGAGTCACCTAGTGCAG,4480 fluorescence intensity (a.u.)
2,GGCGGATATTGTGTCCGGCGCCTGTCATGTTGCTAGATTCCGGAGTCACCTAGTGCAG,3660 fluorescence intensity (a.u.)
3,TTGCGTGGTGTAAATTGTGCCTATCCAACGTGGAAAGACACGGAGTCACCTAGTGCAG,3920 fluorescence intensity (a.u.)
4,TAATTACCTCCATCCCAAAACACTAGTTGTTTTGAGTTTTCGGAGTCACCTAGTGCAG,3440 fluorescence intensity (a.u.)
5,TGAGCCCCACTGTGCTCACCTAACCCATACACGCGGAGCACGGAGTCACCTAGTGCAG,3890 fluorescence intensity (a.u.)
6,CCGTGGACCAGCGCCAACCCTCGCCACCGCACGTCGCCGGCGGAGTCACCTAGTGCAG,27800 fluorescence intensity (a.u.)
7,GATCGCATGGCATTACGACAAACCATGACCACATGGATGACGGAGTCACCTAGTGCAG,3280 fluorescence intensity (a.u.)
8,ACAACGAGAATGGCAACGTCAGAGACCTCAAACACCACGGCGGAGTCACCTAGTGCAG,4300 fluorescence intensity (a.u.)
9,TGCCGTCTTCCTCGTCTCCGGTGACTCTTCGCCGCCGGATCGGAGTCACCTAGTGCAG,3660 fluorescence intensity (a.u.)
10,CAAACGGGTGTATGGTGTGTATTCTTCTCCTCCAAAGTTGCGGAGTCACCTAGTGCAG,3580 fluorescence intensity (a.u.)
11,GTCTCCGCCATCCGCCCGTCCGCCTCTCCGTTCGACCTCGCGGAGTCACCTAGTGCAG,4910 fluorescence intensity (a.u.)
12,CGAATAAGCCCTTAATGTGTACGTTATTTGGTTTATCCACCGGAGTCACCTAGTGCAG,3240 fluorescence intensity (a.u.)
13,CCCCACATGTCAGTGACGCGGCGCACAAGGTCAAAGCCTACGGAGTCACCTAGTGCAG,4820 fluorescence intensity (a.u.)
14,CACACCTGACACAACACTTACACATCATACCAGAAGAAAACGGAGTCACCTAGTGCAG,3210 fluorescence intensity (a.u.)
15,ACTATTTTACGTCCCCACATTTCCAACCATTCGCCGCCGCCGGAGTCACCTAGTGCAG,12900 fluorescence intensity (a.u.)
16,TGTTCCCATCCATCAGCAGCGAACACACCCTATGTCCCTACGGAGTCACCTAGTGCAG,3170 fluorescence intensity (a.u.)
17,CTTAGCCGGCTATACGCGGCTACGTTGGCTGACTTGGTAGCGGAGTCACCTAGTGCAG,4170 fluorescence intensity (a.u.)
18,TGCGTTTGGAGAGGTGACTCCAAGATGGTGGTCGGCGTGGCGGAGTCACCTAGTGCAG,3390 fluorescence intensity (a.u.)
19,GTCCGGGGCAGCCAGATCCAGCGCCACCTCACCCATGGCACGGAGTCACCTAGTGCAG,7320 fluorescence intensity (a.u.)
20,TCCGGGTCCGGTGACGCGGCGGCACAGTACCAGGAGAGGACGGAGTCACCTAGTGCAG,5160 fluorescence intensity (a.u.)
21,GTCCTACGCCTATGCAGCGGAGAGGCATGCTCGCGTGTACCGGAGTCACCTAGTGCAG,3960 fluorescence intensity (a.u.)

# Reference: paper PMC7819943, “Rice protein-binding microarrays: a tool to detect cis-acting elements near promoter regions in rice”
